Results from US20210324094A1.
Numbering of substitutions follows the chain as printed. These are yes or no findings as the source states them, for the method shown. Some binding calls cover weakened binding; strength is not graded here.

Amino acid sequences for entries named in this document (tags omitted). Residues count along the entry.
UniProt P15208, residues 28-946: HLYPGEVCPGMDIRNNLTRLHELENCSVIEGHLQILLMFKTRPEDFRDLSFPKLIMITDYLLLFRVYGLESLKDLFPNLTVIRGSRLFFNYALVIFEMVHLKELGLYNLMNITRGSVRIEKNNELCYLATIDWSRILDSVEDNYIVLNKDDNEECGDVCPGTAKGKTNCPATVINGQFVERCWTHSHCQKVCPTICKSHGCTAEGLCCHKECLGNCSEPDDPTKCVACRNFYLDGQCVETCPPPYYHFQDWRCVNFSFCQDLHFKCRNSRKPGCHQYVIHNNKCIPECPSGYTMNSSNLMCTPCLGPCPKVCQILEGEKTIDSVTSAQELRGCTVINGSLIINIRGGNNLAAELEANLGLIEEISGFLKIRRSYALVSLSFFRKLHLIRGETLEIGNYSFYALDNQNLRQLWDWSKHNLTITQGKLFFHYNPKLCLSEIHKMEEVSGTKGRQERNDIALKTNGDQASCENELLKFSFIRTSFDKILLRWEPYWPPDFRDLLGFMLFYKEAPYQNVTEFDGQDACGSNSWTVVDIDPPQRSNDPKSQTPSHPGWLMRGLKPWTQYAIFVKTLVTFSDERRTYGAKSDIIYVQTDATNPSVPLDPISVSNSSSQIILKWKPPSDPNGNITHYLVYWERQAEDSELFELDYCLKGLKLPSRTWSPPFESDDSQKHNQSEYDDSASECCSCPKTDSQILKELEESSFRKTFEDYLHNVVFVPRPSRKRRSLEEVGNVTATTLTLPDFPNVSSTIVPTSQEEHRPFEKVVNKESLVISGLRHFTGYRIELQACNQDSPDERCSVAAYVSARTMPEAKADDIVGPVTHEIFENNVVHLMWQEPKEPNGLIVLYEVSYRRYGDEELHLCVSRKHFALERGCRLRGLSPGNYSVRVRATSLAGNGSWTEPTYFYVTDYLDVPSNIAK
UniProt P06213, residues 28-956: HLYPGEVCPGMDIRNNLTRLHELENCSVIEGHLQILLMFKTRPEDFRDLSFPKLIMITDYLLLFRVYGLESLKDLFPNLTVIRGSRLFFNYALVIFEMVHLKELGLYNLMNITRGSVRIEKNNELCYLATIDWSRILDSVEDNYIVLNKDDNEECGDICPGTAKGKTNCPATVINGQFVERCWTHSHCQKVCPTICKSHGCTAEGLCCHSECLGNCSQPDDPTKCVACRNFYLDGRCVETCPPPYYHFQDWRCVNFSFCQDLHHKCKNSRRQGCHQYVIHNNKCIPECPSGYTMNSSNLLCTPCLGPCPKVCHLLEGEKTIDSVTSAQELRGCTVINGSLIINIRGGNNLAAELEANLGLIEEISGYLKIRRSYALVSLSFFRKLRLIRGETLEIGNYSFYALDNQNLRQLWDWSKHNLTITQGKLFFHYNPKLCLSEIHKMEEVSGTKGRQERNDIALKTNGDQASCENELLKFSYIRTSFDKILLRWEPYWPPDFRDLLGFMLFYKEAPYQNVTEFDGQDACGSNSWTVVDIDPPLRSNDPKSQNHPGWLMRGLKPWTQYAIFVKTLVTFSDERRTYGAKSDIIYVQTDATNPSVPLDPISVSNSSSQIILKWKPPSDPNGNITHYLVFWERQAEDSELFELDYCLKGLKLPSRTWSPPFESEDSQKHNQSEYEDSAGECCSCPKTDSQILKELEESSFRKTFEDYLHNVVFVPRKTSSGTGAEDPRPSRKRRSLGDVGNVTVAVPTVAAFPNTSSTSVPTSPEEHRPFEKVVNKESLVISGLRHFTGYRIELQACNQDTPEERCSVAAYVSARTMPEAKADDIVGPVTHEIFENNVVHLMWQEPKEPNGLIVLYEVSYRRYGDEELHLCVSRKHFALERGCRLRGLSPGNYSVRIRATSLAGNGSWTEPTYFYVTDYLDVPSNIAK

B1: L113 (antibody, V domains shown)
VH: EVQLVESGGGLVQPGGSLRLSCAASGFTFSSYYMSWVRQAPGKGLEWVSAISYGGSSTYYADSVKGRFTISRDNSKNTLYLQMNSLRAEDTAVYYCARHPSYGTVNHAYFDVWGQGTLVTVSS
VL: DIQMTQSPSSLSASVGDRVTITCGASRDVSSYLAWYQQKPGKAPKLLIYDANILQSGVPSRFSGSGSGTDFTLTISSLQPEDFATYYCLEYNSLPLTFGQGTKVEIKR
B2: H031 (antibody, V domains shown)
VH: B1 VH with S101R
VL: B1 VL with S93N
B3: L016 (antibody, V domains shown)
VH: B1 VH
VL: B1 VL with S93V
B4: H118 (antibody, V domains shown)
VH: B1 VH with S101T
VL: B1 VL with S93N
B5: IR739 (antibody, human IgG1, kappa, V domains shown)
VH: B1 VH
VL: B1 VL with S93N
B6: HL009 (antibody, V domains shown)
VH: B1 VH with S101R
VL: B1 VL with N92P, S93N

These binders were tested against Mouse IR (mouse) (UniProt P15208) (assay: ELISA, plate coated with mouse IR at 5 µg/ml, peroxidase anti-human Fc IgG).

binding, binds:
B1, B2, B3, B4, B5, B6

These binders were tested against Human IR (human) (UniProt P06213) (assay: competitive ELISA on coated human IR, IR739 mixed with biotinylated insulin at 0.6-150 nM, IR739 detected with peroxidase anti-human Fc IgG).

binding, binds:
B5

These binders were tested against Mouse IR (mouse) (UniProt P15208) (assay: competitive ELISA on coated mouse IR, IR739 mixed with biotinylated insulin at 0.6-150 nM, IR739 detected with peroxidase anti-human Fc IgG).

binding, binds:
B5

The binders below were run against Mouse IR (mouse) (UniProt P15208) (assay: ELISA, IR-coated plate).

binding, binds:
B1, B2, B3, B4, B6

Each binder was assayed against Human IR (human) (UniProt P06213) (assay: ELISA, IR-coated plate).

binding, binds:
B1, B2, B3, B4, B6

Each binder was assayed against Mouse IR (mouse) (UniProt P15208) (assay: ELISA, IR-coated plate; IR739 as the reference).

binding, binds:
B5

What follows are binders tested against Human IR (human) (UniProt P06213) (assay: ELISA, IR-coated plate; IR739 as the reference).

binding, binds:
B5

The binders below were run against Human IR (human) (UniProt P06213) (assay: ELISA, plate coated with human IR at 5 µg/ml, peroxidase anti-human Fc IgG).

binding, binds:
B1, B2, B3, B4, B5, B6
